The list is a part of this screen's results and no random one: it gathers tests that were run many times, whatever their T/C, doses with no T/C, and many T/C values between a quarter and a half above the control. Other doses and runs of a compound stand elsewhere. T/C gives the treated animals as a percentage of the vehicle group. Some doses have a count of surviving animals in place of a T/C: the source holds a T/C of zero for them, seemingly a mark for toxic or unscored doses. Some doses without a T/C left all or most animals alive at the check, yet need not have been tolerated: survival well below the control is almost never listed, so the zero probably covers shortened survival too. Counts of survivors are from the toxicity check (mostly the fifth day) where no day follows; animals may have died later. Schedules are NCI's codes, taken here to give the interval after Q, in days (D) or hours (H), and the number of doses after X. Some entries hold several experiments; the results are listed from low to high. For survival time, the PubChem record calls one and a half times the control and up active, and a quarter to a half above the control has no call in these data; cut-offs in other NCI protocols can differ.

This assay has as its system BDF1 mice, B16 melanoma ip, median survival T/C. The assay can be described thus: NCI In Vivo Anticancer Drug Screen. Data for tumor model B16 Melanoma (intraperitoneal) in B6D2F1 (BDF1) mice. The following applies: T/C endpoint: median survival time, higher T/C = longer survival. In outline:
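In this screen, activity was judged from survival or tumor size in treated versus vehicle-treated tumor-bearing mice, reported as T/C.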

Setting [1] is: dose: 50.0 mg/kg/injection, schedule: Q01DX009 (ip), vehicle: saline.
Setting [2] is: dose: 400.0 mg/kg/injection, schedule: Q01DX009 (ip), vehicle: Klucel (hydroxypropylcellulose) (HPC).
Setting [3] is: dose: 10.0 mg/kg/injection, schedule: Q01DX009 (ip), vehicle: saline with Tween-80.
[4] abbreviates: dose: 50.0 mg/kg/injection, schedule: Q01DX009 (ip), vehicle: Klucel (hydroxypropylcellulose) (HPC).
[5] abbreviates: dose: 6.25 mg/kg/injection, schedule: Q01DX009 (ip), vehicle: saline.
[6] abbreviates: dose: 12.5 mg/kg/injection, schedule: Q01DX009 (ip), vehicle: saline.
Where [7] appears, read: dose: 400.0 mg/kg/injection, schedule: Q01DX009 (ip), vehicle: saline with Tween-80.
The mark [8] stands for this setting: dose: 200.0 mg/kg/injection, schedule: Q01DX009 (ip), vehicle: saline with Tween-80.

For `N=C(N)c1ccc(OCCCOc2ccc(C(=N)N)cc2Br)c(Br)c1`, the survivor count under setting [1] was 3 of 10 and 5 of 10. Take `O=C(O)C(O)C(O)C(=O)O.O=C(O)C(O)C(O)C(=O)O.[O]=[V].[O]=[V]` (centres undefined): under setting [1], the survivor count is recorded as 7 of 10. As for `COc1cc([C@@H]2c3cc4c(c(O)c3C[C@H]3COC(=O)[C@@H]32)OCO4)cc(OC)c1O`, the survivor count by setting is: (dose: 1.0 mg/kg/injection, schedule: Q01DX009 (ip), vehicle: suspension in saline) 8 of 10; (dose: 2.0 mg/kg/injection, schedule: Q01DX009 (ip), vehicle: suspension in saline) 4 of 10; (dose: 4.0 mg/kg/injection, schedule: Q01DX009 (ip), vehicle: suspension in saline) 1 of 10. Take `O=C(NC(CSC(=O)OCc1ccccc1)C(=O)Oc1ccc([N+](=O)[O-])cc1)OCc1ccccc1` (centres undefined): under “dose: 100.0 mg/kg/injection, schedule: Q01DX009 (ip), vehicle: Klucel (hydroxypropylcellulose) (HPC)”, the survivor count is reported as 9 of 10.

On to `CC[n+]1c(C)sc2cc3c(cc21)OCO3`, for which, under “dose: 100.0 mg/kg/injection, schedule: Q01DX009 (ip), vehicle: carboxymethylcellulose (CMC)”, the survivor count was 6 of 10.

With `CCOC(=O)Nc1ccc([N+](=O)[O-])cc1`, under setting [2], the survivor count is recorded as 6 of 10. Take `Nc1nc(=S)c2ncn(C3CC(O)C(CO)O3)c2[nH]1` (centres undefined): the survivor count is, setting by setting: under setting [3], 6 of 6; (dose: 20.0 mg/kg/injection, schedule: Q01DX009 (ip), vehicle: saline with Tween-80) 6 of 6; (dose: 100.0 mg/kg/injection, schedule: Q01DX009 (ip), vehicle: saline sonified) 6 of 6; (dose: 200.0 mg/kg/injection, schedule: Q01DX009 (ip), vehicle: saline sonified) 6 of 6. On to `O=[N+]([O-])CC1(O)CCCCC1`, for which the survivor count under setting [4] is on record as 7 of 10. On to `CC1(CO)C(O)CCC2(C)C1CCC1CC3CC12CCC3(O)CO` (centres undefined), for which the survivor count was 10 of 10 (dose: 0.78 mg/kg/injection, schedule: Q03HX020 (ip), vehicle: Klucel (hydroxypropylcellulose) (HPC)); 10 of 10 (dose: 1.56 mg/kg/injection, schedule: Q03HX020 (ip), vehicle: Klucel (hydroxypropylcellulose) (HPC)); 4 of 10 (dose: 100.0 mg/kg/injection, schedule: Q03HX020 (ip), vehicle: Klucel (hydroxypropylcellulose) (HPC)); 9 of 10 (dose: 800.0 mg/kg/injection, schedule: Q04DX003 (ip), vehicle: Klucel (hydroxypropylcellulose) (HPC)). The T/C was 142 % of control (dose: 37.5 mg/kg/injection, schedule: Q01DX009 (ip), vehicle: saline with Tween-80); 125 % of control (dose: 75.0 mg/kg/injection, schedule: Q01DX009 (ip), vehicle: saline with Tween-80); 148 % of control (dose: 150.0 mg/kg/injection, schedule: Q01DX009 (ip), vehicle: saline with Tween-80); 135 % of control (dose: 200.0 mg/kg/injection, schedule: Q04DX003 (ip), vehicle: Klucel (hydroxypropylcellulose) (HPC)). Regarding `Brc1cc(Br)c(-c2c(Br)cc(Br)cc2Br)c(Br)c1`, the survivor count under setting [2] is on record as 10 of 10.

As to `CCc1ccc2c(c1)N(CC(C)CN(C)C)c1ccccc1S2` (centres undefined), the survivor count is 9 of 10 and 10 of 10 (dose: 0.78 mg/kg/injection, schedule: Q01DX009 (ip), vehicle: saline); 10 of 10 (dose: 1.56 mg/kg/injection, schedule: Q01DX009 (ip), vehicle: saline); 10 of 10 (dose: 3.12 mg/kg/injection, schedule: Q01DX009 (ip), vehicle: saline); 6 of 10, 7 of 10, 10 of 10 under setting [5]; 1 of 10, 2 of 10, 10 of 10 under setting [6].

As for `COc1ccccc1NC(=O)Nc1cccc(C(C)=O)c1`, the survivor count under setting [7] is reported as 9 of 9.

`CCCCCCCCCCCCCCCC(=O)O[C@@]12C[C@@H](C)[C@@]3(O)[C@@H](C=C(CO)C[C@]4(O)C(=O)C(C)=C[C@@H]34)[C@@H]1C2(C)C`: the survivor count reads like this: (dose: 0.25 mg/kg/injection, schedule: Q01DX009 (ip), vehicle: other) 9 of 10; (dose: 0.5 mg/kg/injection, schedule: Q01DX009 (ip), vehicle: other) 8 of 10; (dose: 1.0 mg/kg/injection, schedule: Q01DX009 (ip), vehicle: other) 2 of 10. Take `C=C(Cl)C(=NC(C)(C)C)Nc1ccccc1C`: the survivor count under setting [4] is recorded as 8 of 10.

With `CC(Cc1ccccc1)NN` (centres undefined), where the note is “dose: 15.62 mg/kg/injection, schedule: Q01DX009 (ip), vehicle: saline”, the survivor count is on record as 10 of 10. As to `O=c1[nH]c(=O)n(C2OC(CO)C(O)C2O)cc1F` (centres undefined), the survivor count under setting [5] was 10 of 10; the survivor count under setting [6] is listed as 10 of 10; the survivor count (dose: 25.0 mg/kg/injection, schedule: Q01DX009 (ip), vehicle: saline) was 10 of 10.

Consider `O=S(=O)(Nc1ccc(-c2ccccc2)cc1)c1ccccc1`, for which the survivor count under setting [7] is given as 9 of 10. Consider `COc1ccc(/C=C/c2ccc3ccccc3[n+]2C)c(OC)c1OC`, for which the T/C (dose: 10.0 mg/kg/injection, schedule: Q01DX009 (ip), vehicle: saline) was 126 % of control. On to `CC(C)(C)OC(=O)NCCCCC(NC(=O)OCc1ccccc1)C(=O)ON1C(=O)CCC1=O` (centres undefined), for which the survivor count under setting [7] is 10 of 10. Consider `CCOC(=O)N1CCN(CCCCCCOc2ccc(C3CCCCC3)cc2)CC1`, for which the survivor count runs as follows: under setting [1], 9 of 10; (dose: 100.0 mg/kg/injection, schedule: Q01DX009 (ip), vehicle: saline) 10 of 10; (dose: 200.0 mg/kg/injection, schedule: Q01DX009 (ip), vehicle: saline) 9 of 10. Take `CC1(C)OCC(C2CCC3(C)C4=CCC5C(C)(C)C(O)CCC5(C)C4CCC23C)CC(O)C1O` (centres undefined): the survivor count (dose: 2.5 mg/kg/injection, schedule: Q01DX009 (ip), vehicle: Klucel (hydroxypropylcellulose) (HPC)) is given as 10 of 10. Take `CC[C@@H]1O[C@@H]([C@@H]2CC[C@](O)([C@]3(C)CC[C@@H]([C@@H](C)[C@@]4(O)CC[C@H](C)[C@@H](C[C@@]5(O)O[C@@H]([C@@H](C)[C@H](O)C[C@H]6CC[C@H](C)[C@@H]([C@@H](C)C(=O)O)O6)CC[C@@H]5C)O4)O3)O2)CC[C@@]1(C)O`: the survivor count (dose: 1.0 mg/kg/injection, schedule: Q01DX009 (ip), vehicle: saline) is 6 of 10.

On to `OCC(F)(F)C(F)(F)C(F)(F)F`, for which, for the setting “dose: 600.0 mg/kg/injection, schedule: Q01DX009 (ip), vehicle: saline”, the survivor count is 10 of 10. As to `CC(C)=CC1C(C(=O)OCc2ccc(C)cc2C)C1(C)C` (centres undefined), the survivor count is given as 10 of 10 (dose: 100.0 mg/kg/injection, schedule: Q01DX009 (ip), vehicle: saline with Tween-80); 10 of 10 under setting [8]; 10 of 10 under setting [7]. As to `CC(=O)Nc1cc(F)c([N+](=O)[O-])cc1[N+](=O)[O-]`, the survivor count is listed as 6 of 6 (dose: 5.0 mg/kg/injection, schedule: Q01DX009 (ip), vehicle: saline with Tween-80) and 6 of 6 under setting [3]. For the compound `O=c1[nH]cc(F)c(=O)n1-c1ccco1`, the survivor count (dose: 50.0 mg/kg/injection, schedule: Q01DX011 (ip), vehicle: saline with Tween-80) is recorded as 9 of 9. Take `Cc1nc2ccc(CCN3CCN(c4ccccc4Cl)CC3)cc2[nH]1`: the survivor count is, setting by setting: (dose: 16.5 mg/kg/injection, schedule: Q01DX009 (ip), vehicle: saline) 9 of 10; (dose: 33.0 mg/kg/injection, schedule: Q01DX009 (ip), vehicle: saline) 9 of 10; (dose: 66.0 mg/kg/injection, schedule: Q01DX009 (ip), vehicle: saline) 0 of 10. Turning to `CSCCC(C#N)c1ccccc1` (centres undefined), the survivor count under setting [8] is on record as 4 of 10.

On to `NC1CONC1=O` (centres undefined), for which the survivor count (dose: 3.13 mg/kg/injection, schedule: Q01DX009 (ip), vehicle: saline) is given as 10 of 10. For `O=P(CCCCCCP(=O)(N1CC1)N1CC1)(N1CC1)N1CC1`, the T/C is 135 % of control (dose: 25.0 mg/kg/injection, schedule: Q01DX009 (ip), vehicle: Klucel (hydroxypropylcellulose) (HPC)) and 142 % of control under setting [4]. For the same compound, the survivor count (dose: 200.0 mg/kg/injection, schedule: Q01DX009 (ip), vehicle: Klucel (hydroxypropylcellulose) (HPC)) is reported as 9 of 10.

(Values after PubChem BioAssay AID192 (DTP/NCI, 2004).)
